# Assay results published in paper PMC7819943, “Rice protein-binding microarrays: a tool to detect cis-acting elements near promoter regions in rice”.
# This is one part of the list.
# Target: T1, OsSMF1 (Oryza sativa, UniProt Q6ZLB0 1-436)
# T1 sequence: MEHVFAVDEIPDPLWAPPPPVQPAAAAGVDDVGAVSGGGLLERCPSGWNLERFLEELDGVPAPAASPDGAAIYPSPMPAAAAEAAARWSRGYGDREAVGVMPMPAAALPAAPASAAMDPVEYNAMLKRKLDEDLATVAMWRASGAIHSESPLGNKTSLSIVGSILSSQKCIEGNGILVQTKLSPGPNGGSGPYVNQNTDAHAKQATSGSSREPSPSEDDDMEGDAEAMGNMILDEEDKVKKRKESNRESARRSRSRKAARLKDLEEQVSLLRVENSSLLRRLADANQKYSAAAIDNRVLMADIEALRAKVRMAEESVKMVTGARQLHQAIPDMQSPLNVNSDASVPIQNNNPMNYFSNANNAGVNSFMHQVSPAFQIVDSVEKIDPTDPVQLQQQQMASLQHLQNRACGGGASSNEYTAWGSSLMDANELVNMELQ
# Experiment: protein-binding microarray (RPBM); PBS, 2% BSA, 51.3 ng/ul salmon testes DNA, 50 uM zinc acetate, 200 nM TF, 25 C, 1 h; high values mean tight binding
# Conditions: protein: recombinant; tags: N-terminal polyhistidine and DsRed monomer fusion (pET32a); chain copies: 2; label: CyDye5-dUTP incorporated in the synthesized complementary strand; 3' TTTTT single-stranded linker to array surface; dsDNA, one strand shown
# In short: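 Per-feature fluorescence intensity (arbitrary units), read on an Axon 4000B scanner, is the binding signal. Transcription factors carrying an N-terminal polyhistidine tag and DsRed fusion were expressed in E. coli BL21-CodonPlus and purified on Ni–NTA. A custom Agilent array, made double-stranded by primer extension with Cy5-dUTP and blocked with 2% BSA, was incubated with 200 nM protein in PBS, 2% BSA, salmon testes DNA and 50 µM zinc acetate at 25 °C for 1 h and then washed.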
row,Sequence,binding signal
1,GTGGTTTCGCTGCTTGGTCATCACTGCTCCGTCGTCGGCTCGGAGTCACCTAGTGCAG,6770 fluorescence intensity (a.u.)
2,CGACTCGCCGGTCGCGTTGGCGGCGGTCTGAGAAGCGCTGCGGAGTCACCTAGTGCAG,3150 fluorescence intensity (a.u.)
3,GCTCCTTCAAACACTTCTAAACCGCCACGTGGCACTTTAACGGAGTCACCTAGTGCAG,19200 fluorescence intensity (a.u.)
4,TCACGCGTAGCTTCGCCGCTACGTGGCCTCGCGCACGTTACGGAGTCACCTAGTGCAG,5500 fluorescence intensity (a.u.)
5,GCGGGCGTCTTCGTCAGCAGCTCCGTCTGCGGTGGCTGCTCGGAGTCACCTAGTGCAG,5660 fluorescence intensity (a.u.)
6,TTATCTGAAGGAATTGGCAAGGTGGCGACAGGGCTCCAATCGGAGTCACCTAGTGCAG,21600 fluorescence intensity (a.u.)
7,CATGGCACAGCGAAAATGCCACGTGTACTCGTACTCCAGTCGGAGTCACCTAGTGCAG,13000 fluorescence intensity (a.u.)
8,ATGATGAAAATTCATGACAACTCAAAACCAGTATTCGTTGCGGAGTCACCTAGTGCAG,4010 fluorescence intensity (a.u.)
9,AAACTACAGTGCATAGAATGTGAATTCTGAACACGTGTTTCGGAGTCACCTAGTGCAG,4890 fluorescence intensity (a.u.)
10,GCACACGCAGCAACGCGTGTCGTTTTGTGAGTGGCAAATACGGAGTCACCTAGTGCAG,3290 fluorescence intensity (a.u.)
11,CAGCGCTAACTAGCTTGTGCAACACCTGAACTGCCTCCAACGGAGTCACCTAGTGCAG,16500 fluorescence intensity (a.u.)
12,GCTGCATCGAATGGAGCTCGTCGGAGTCATCGGTCATGTACGGAGTCACCTAGTGCAG,4940 fluorescence intensity (a.u.)
13,TGCACAGCGTGTTCCTCTCTAGTCTATGTGGACCTTTTGCCGGAGTCACCTAGTGCAG,3600 fluorescence intensity (a.u.)
14,ATCCCAACAATTTCAGACCCATGACCTATGAATTTTACTTCGGAGTCACCTAGTGCAG,5260 fluorescence intensity (a.u.)
15,CAACTCCGATGACGAAGACAACTACGAGGAGTACATCCCCCGGAGTCACCTAGTGCAG,4980 fluorescence intensity (a.u.)
16,TTTGCTCTGCCATGTAAGCGTCACGTCAATGCCATGTAGGCGGAGTCACCTAGTGCAG,11200 fluorescence intensity (a.u.)
17,TCAGTTGCTCACGGCTGATTATATGCCGCAACGACTTATTCGGAGTCACCTAGTGCAG,3300 fluorescence intensity (a.u.)
18,TCCTCTCCTTCACTCGTACTGTTTCTGATATCATTGATTGCGGAGTCACCTAGTGCAG,3790 fluorescence intensity (a.u.)
19,ATCACCATGGCTTTAAGAAATGACATCAGCCACCAGTAGACGGAGTCACCTAGTGCAG,6230 fluorescence intensity (a.u.)
20,GGGTGCTACATCTGCAGCCCTTCCGAATCATCACGTGTTCCGGAGTCACCTAGTGCAG,3410 fluorescence intensity (a.u.)
21,ACTAGAAGCCATCGATGTGTATCCTGCCTTGCCTGCGTGTCGGAGTCACCTAGTGCAG,3980 fluorescence intensity (a.u.)

row,Sequence,binding signal
1,TCGCTCGGCGCCGGGCGGCAGCTAGGCGTCATCGTCGCGTCGGAGTCACCTAGTGCAG,4260 fluorescence intensity (a.u.)
2,CGAGCCCGTCCAGGGCCAGGTACTTTCACTCTCACCTCACCGGAGTCACCTAGTGCAG,21900 fluorescence intensity (a.u.)
3,GAGGAGGAATGGAGGAACTGAGGAGTCACCTAGGTGTAGACGGAGTCACCTAGTGCAG,3940 fluorescence intensity (a.u.)
4,CAATGCCCGTCACGAATGAGTCATCTGTGACGGGCCTAGTCGGAGTCACCTAGTGCAG,13400 fluorescence intensity (a.u.)
5,AACGCTTTGCGGTGATCTTAAAGTCGCCAAACACCTCAATCGGAGTCACCTAGTGCAG,15600 fluorescence intensity (a.u.)
6,TCTCCAAGCCCACGAACACCCACAGCCACCGTGAGCTCGACGGAGTCACCTAGTGCAG,3300 fluorescence intensity (a.u.)
7,TACGCTAGTGTTGGTATATTTTAAGCGAGAATATTTGATGCGGAGTCACCTAGTGCAG,17300 fluorescence intensity (a.u.)
8,ATCGCGACGCACCTCGCGGATCGGTGACGTGGCCTCGCCCCGGAGTCACCTAGTGCAG,28400 fluorescence intensity (a.u.)
9,CCAAACGTGCTCCAAACATCCACGAACTCACCTCGATTACCGGAGTCACCTAGTGCAG,25200 fluorescence intensity (a.u.)
10,GTTTCAGTAGGAAATTATGAATGCTTTCAATTCCCTGTGACGGAGTCACCTAGTGCAG,3270 fluorescence intensity (a.u.)
11,TGTTCGGCGCGGGCGTCACCACTTTCCGCCTCAACATGAACGGAGTCACCTAGTGCAG,3390 fluorescence intensity (a.u.)
12,AGTCAAGTTTCTATATCCGGTAGACCAGCGTGGCAAAGGCCGGAGTCACCTAGTGCAG,4520 fluorescence intensity (a.u.)
13,AGATCGACAGGGCTTCGCCACGATAACCAGAGGCGCCCGTCGGAGTCACCTAGTGCAG,3460 fluorescence intensity (a.u.)
14,GATTAGTCAAGTTGATTATGAGAGTAAAATACACTATCTACGGAGTCACCTAGTGCAG,4660 fluorescence intensity (a.u.)
15,GGCGTATGAACAATTAAGTGACTAGTCGTCAGTCAGGTAGCGGAGTCACCTAGTGCAG,4250 fluorescence intensity (a.u.)
16,GGGGTGGACGGCCGGCGTGCACGGTTCCGCTGACACAGACCGGAGTCACCTAGTGCAG,3340 fluorescence intensity (a.u.)
17,GTGGAAAAGCCAAAGGCAAAGGCAAACCACGCGTCTCTCTCGGAGTCACCTAGTGCAG,17400 fluorescence intensity (a.u.)
18,TATGCCTTCCACTTCCACGTCAGCTTTCCCACACTGGTCTCGGAGTCACCTAGTGCAG,11800 fluorescence intensity (a.u.)
19,CCTTAGACTTTGTATAGTTTATAGTTATGTCACTGACACGCGGAGTCACCTAGTGCAG,3740 fluorescence intensity (a.u.)
20,ATACATATGGTCGGCGGACTCGGAGCCTGATCTGTCAGAACGGAGTCACCTAGTGCAG,4420 fluorescence intensity (a.u.)
21,GTGCCCGCCCACAAAATCCCGCGTCGATTATATTCTCCATCGGAGTCACCTAGTGCAG,3460 fluorescence intensity (a.u.)

# Rewritten with bars between the fields: part of the list above.
row | Sequence | binding signal
7 | TACGCTAGTGTTGGTATATTTTAAGCGAGAATATTTGATGCGGAGTCACCTAGTGCAG | 17300 fluorescence intensity (a.u.)
9 | CCAAACGTGCTCCAAACATCCACGAACTCACCTCGATTACCGGAGTCACCTAGTGCAG | 25200 fluorescence intensity (a.u.)
14 | GATTAGTCAAGTTGATTATGAGAGTAAAATACACTATCTACGGAGTCACCTAGTGCAG | 4660 fluorescence intensity (a.u.)
